These are yes or no findings as the source states them, for the method shown. Binding seen in cells or lysates may run through a third protein. Some entries that bind do so weakly or less than the wild type. Tags and fused reporters may be left off the sequences shown.
B1: TSHZ3 full length, HA-tagged (protein, UniProt Q8CGV9 1-1081)
chain: MPRRKQQAPRRAAAYVSDELKAAALVEDDVEPEEQAADGEPSAKYMCPEKELSKACPSYQNSPAAEFSSHEMDSESHISETSDRMADFESSSIKNEEETKEVQVPLEDTTVSDSLEQMKAVYNNFLSNSYWSNLNLNLHQPSSENNGGSSSSSSSSSSSCGSGSFDWHQSAMAKTLQQVSQNRMLPEPSLFSTVQLYRQSSKLYGSIFTGASKFRCKDCSAAYDTLVELTVHMNETGHYRDDNHETDNNNPKRWSKPRKRSLLEMEGKEDAQKVLKCMYCGHSFESLQDLSVHMIKTKHYQKVPLKEPVTPVAAKIIPAARKKPSLELELPSSPDSTGGTPKATLSDASDALQKNSNPYITPNNRYGHQNGASYAWHFEARKSQILKCMECGSSHDTLQELTAHMMVTGHFIKVTNSAMKKGKPIMETPVTPTITTLLDEKVQSVPLAATTFTSPSNTPASVSPKLAVEIKKEVDKEKAVPDEKPKEREKPSEEEEKYDISSKYHYLTENDLEESPKGGLDILKSLENTVTSAINKAQNGTPSWGGYPSIHAAYQLPNMMKLSLGSSGKSTPLKPMFGNSEIVSPTKTQTLVSPPSSQTSPMPKTNFHAMEELVKKVTEKVAKVEEKMKEPEGKLSPPKRATPSPCSSEQSEPIKMEASSDGSFKSQENSPSPPRDACKEASPSAEPVENGKELVKPLSGGLSGSTAIITDHPPEQPFVNPLSALQSVMNIHLGKAAKPSLPALDPMSMLFKMSNSLAEKAAVATPPPLQAKKAEHLDRYFYHVNNDQPIDLTKGKSDKGCSLGSGLLSPTSTSPATSSSTVTTAKTSAVVSFMSNSPLRENALSDISDMLKNLTESHTSKSSTPSSISEKSDIDGATLEEAEESTPAQKRKGRQSNWNPQHLLILQAQFAASLRQTSEGKYIMSDLSPQERMHISRFTGLSMTTISHWLANVKYQLRRTGGTKFLKNLDTGHPVFFCNDCASQIRTPSTYISHLESHLGFRLRDLSKLSTEQINNQIAQTKSPSEKLVTSSPEEDLGTTYQCKLCNRTFASKHAVKLHLSKTHGKSPEDHLLFVSELEKQ
B2: HA-SRF (protein, UniProt Q9JM73 1-504)
chain: MLPSQAGAAAALGRGSALGGNLNRTPTGRPGGGGGTRGANGGRVPGNGAGLGQSRLEREAAAAAAPTAGALYSGSEGDSESGEEEELGAERRGLKRSLSEMELGVVVGGPEAAAAAAGGYGPVSGAVSGAKPGKKTRGRVKIKMEFIDNKLRRYTTFSKRKTGIMKKAYELSTLTGTQVLLLVASETGHVYTFATRKLQPMITSETGKALIQTCLNSPDSPPRSDPTTDQRMSATGFEEPDLTYQVSESDSSGETKDTLKPAFTVTNLPGTTSTIQTAPSTSTTMQVSSGPSFPITNYLAPVSASVSPSAVSSANGTVLKSTGSGPVSSGGLMQLPTSFTLMPGGAVAQQVPVQAIHVHQAPQQASPSRDSSTDLTQTSSSGTVTLPATIMTSSVPTTVGGHMMYPSPHAVMYAPTSGLADGSLTVLNAFSQAPSTMQVSHSQVQEPGGVPQVFLTAPSGTVQIPVSAVQLHQMAVIGQQAGSSSNLTELQVVNLDATHSTKSE

By UniProt entry, the sequences of proteins in these tests, tags left out.
UniProt Q04887: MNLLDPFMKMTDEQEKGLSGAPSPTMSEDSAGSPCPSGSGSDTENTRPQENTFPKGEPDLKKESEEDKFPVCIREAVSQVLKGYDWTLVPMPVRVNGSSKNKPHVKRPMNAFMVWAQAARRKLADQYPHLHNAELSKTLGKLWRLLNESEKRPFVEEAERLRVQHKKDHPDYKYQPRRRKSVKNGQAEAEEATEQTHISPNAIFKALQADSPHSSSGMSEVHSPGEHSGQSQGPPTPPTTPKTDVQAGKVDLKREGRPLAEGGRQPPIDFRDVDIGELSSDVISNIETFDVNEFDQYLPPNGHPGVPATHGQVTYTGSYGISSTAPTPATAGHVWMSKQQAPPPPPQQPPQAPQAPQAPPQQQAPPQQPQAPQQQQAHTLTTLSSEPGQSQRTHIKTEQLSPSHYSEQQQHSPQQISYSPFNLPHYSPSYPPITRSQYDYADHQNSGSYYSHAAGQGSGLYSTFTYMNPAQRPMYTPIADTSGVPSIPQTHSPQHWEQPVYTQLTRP
UniProt Q8VIM5: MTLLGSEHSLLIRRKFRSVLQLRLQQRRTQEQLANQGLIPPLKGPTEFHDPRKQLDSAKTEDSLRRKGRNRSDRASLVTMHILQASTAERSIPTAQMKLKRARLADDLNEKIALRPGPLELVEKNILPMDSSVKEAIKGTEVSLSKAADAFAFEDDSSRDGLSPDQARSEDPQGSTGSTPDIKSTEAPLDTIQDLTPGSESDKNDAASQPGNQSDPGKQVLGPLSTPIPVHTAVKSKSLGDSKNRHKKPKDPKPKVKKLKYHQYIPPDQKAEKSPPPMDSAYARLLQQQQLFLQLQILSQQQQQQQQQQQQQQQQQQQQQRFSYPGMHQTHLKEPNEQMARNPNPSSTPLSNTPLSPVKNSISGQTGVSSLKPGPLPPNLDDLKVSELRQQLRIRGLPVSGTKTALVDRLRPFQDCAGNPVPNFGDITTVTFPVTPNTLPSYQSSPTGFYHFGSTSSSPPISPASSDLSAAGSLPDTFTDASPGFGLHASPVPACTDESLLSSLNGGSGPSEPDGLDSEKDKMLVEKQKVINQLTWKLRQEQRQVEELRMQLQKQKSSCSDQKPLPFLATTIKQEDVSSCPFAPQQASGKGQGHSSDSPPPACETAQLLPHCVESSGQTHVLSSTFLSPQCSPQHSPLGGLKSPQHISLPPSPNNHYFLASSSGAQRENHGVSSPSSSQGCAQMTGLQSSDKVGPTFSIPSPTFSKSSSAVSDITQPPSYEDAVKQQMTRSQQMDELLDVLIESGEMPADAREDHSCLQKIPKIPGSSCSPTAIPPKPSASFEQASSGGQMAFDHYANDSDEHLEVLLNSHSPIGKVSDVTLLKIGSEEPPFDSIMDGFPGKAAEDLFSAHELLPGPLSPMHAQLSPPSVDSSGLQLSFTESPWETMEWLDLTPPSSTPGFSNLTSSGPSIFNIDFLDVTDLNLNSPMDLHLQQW

Key:
Flag-tagged SOX9 = Flag-tagged SOX9 (UniProt Q04887); assay: co-IP; HEK293T cells transfected with HA-tagged TSHZ3 constructs and Flag-tagged SOX9; immunoprecipitated with a Flag antibody, then immunoblotting (Fig 1F-I)
Flag-tagged MYOCD [1] = molecular target: Flag-tagged MYOCD (UniProt Q8VIM5); assay: co-IP; HEK293T cells transfected with HA-tagged TSHZ3 constructs and Flag-tagged MYOCD; immunoprecipitated with a Flag antibody, then immunoblotting (Fig 5B-E)
Flag-tagged MYOCD [2] = molecular target: Flag-tagged MYOCD (UniProt Q8VIM5); assay: co-IP; HEK293T cells co-transfected with HA-SRF, HA-SOX9, HA-TSHZ3 or HA-TSHZ3-trunc and Flag-MYOCD; Flag-MYOCD immunoprecipitated from nuclear extracts, HA-tagged proteins detected by Western blotting (Fig 6A-C)

| Binder | binding (Flag-tagged SOX9) | binding (Flag-tagged MYOCD [1]) | binding (Flag-tagged MYOCD [2]) |
| --- | --- | --- | --- |
| B1 | binds | binds | binds |
| B2 |  |  | binds |
